In the odorant receptor screen of Mainland et al. (2015) one finds odorant receptor activation data, which are given here for seven compounds.

Chains of the proteins cited; added tags and fusions are not shown. A line that says so, or that is headed by a name, gives the form on record, which may keep a tag or linker.
OR4F14 A297T, as listed by the source, stated change not applied: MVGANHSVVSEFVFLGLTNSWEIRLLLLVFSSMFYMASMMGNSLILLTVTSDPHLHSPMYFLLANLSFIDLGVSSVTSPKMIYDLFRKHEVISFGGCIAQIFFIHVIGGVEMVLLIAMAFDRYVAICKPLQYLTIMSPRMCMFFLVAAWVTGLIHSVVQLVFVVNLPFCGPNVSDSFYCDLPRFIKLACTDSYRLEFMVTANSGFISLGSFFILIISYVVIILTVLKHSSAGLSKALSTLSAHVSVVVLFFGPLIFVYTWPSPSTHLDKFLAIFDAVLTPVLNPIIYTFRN

Structures are written as SMILES. “And” between values parts separate entries of the source, which are not always exact repeats. Equal entries are not always repeated. The list shows a part of the results. Each value is one well over the wells without odorant, computed here; the data are noisy.

Test systems include OR4B1 clone 1189; OR4C11 clone 1244; OR4C12 V283L clone 1155; OR4C15 clone 1337; OR4C15 clone 1449; OR4C3 clone 1284; OR4C3 clone 1480; OR4C46 K288R clone 1483; OR4C5 clone 1307; OR4D1 R54Q clone 1467; OR4D1 clone 1316; OR4D10 clone 1174; OR4D11 clone 1243; OR4D5 clone 1122; OR4D6 D96G clone 1225; OR4D9 clone 1217; OR4F14 A297T clone 1059.
Experiment in all cases: odorant receptor activation (CRE luciferase / Renilla) (fold of no-odor wells); higher = more activation
Holding throughout (settings): 100 µM

Experiment [1] has as its system OR4C16 V25L/T76A/L259P clone 1237.
Experiment [2] concerns OR4D2 C97S/L187F clone 1285.
Experiment [3] relates to OR4E2 V118M/Q234R clone 1274.

Take `C=CCc1ccc(O)c(OC)c1` [eugenol]: the odorant receptor activation in the experiment on OR4B1 clone 1189 was 1.42 and 1.51; with OR4C11 clone 1244, 1.91 and 1.47; with OR4C12 V283L clone 1155, 2.02 and 1.29; with OR4C15 clone 1337, 1.12 and 1.28; in the experiment with OR4C15 clone 1449, 1.76 and 0.834 and 1.38; in [1], 0.987. In addition, the odorant receptor activation with OR4C3 clone 1284 is 2.06 and 1.57; in the experiment with OR4C3 clone 1480, 2.07 and 1.86 and 1.1; in the experiment with OR4C46 K288R clone 1483 it was 2.26 and 1.26 and 1.18; with OR4C5 clone 1307 it was 4.23 and 1.8; in the experiment on OR4D1 R54Q clone 1467, 1.85 and 0.724 and 1.35; in the experiment with OR4D1 clone 1316, 2.28 and 1.51. For the same compound, the odorant receptor activation in the experiment with OR4D10 clone 1174 was 2.8 and 1.34; in the experiment with OR4D11 clone 1243, 1.05 and 1.29; in [2], 2.01 and 1.46; in the experiment on OR4D5 clone 1122, 0.884; with OR4D6 D96G clone 1225, 1.17 and 1.35; in the experiment on OR4D9 clone 1217 it was 1.86 and 1.04. Further, the odorant receptor activation was 2.5 and 1.25 in experiment [3]; 1.63 and 1.22 in the experiment with OR4F14 A297T clone 1059.

`CCCCCCCCC=O` [nonyl aldehyde]: the odorant receptor activation was found to be 0.766 with OR4B1 clone 1189; 0.988 in the experiment with OR4C11 clone 1244; 1.04 in the experiment with OR4C12 V283L clone 1155; 1.15 in the experiment on OR4C15 clone 1337; 0.954 with OR4C15 clone 1449; 0.847 in [1]. Moreover, the odorant receptor activation in the experiment with OR4C3 clone 1284 was 1.04; in the experiment on OR4C3 clone 1480 it was 1.08; with OR4C46 K288R clone 1483, 1.1; with OR4C5 clone 1307, 1.14; with OR4D1 R54Q clone 1467 it was 1.23; in the experiment on OR4D1 clone 1316 it was 0.957. Moreover, the odorant receptor activation with OR4D10 clone 1174 amounted to 0.842; in the experiment with OR4D11 clone 1243, 0.969; in [2], 0.981; in the experiment on OR4D5 clone 1122, 1.12; with OR4D6 D96G clone 1225, 0.863; with OR4D9 clone 1217 it was 1.04. The odorant receptor activation in experiment [3] was 1.25; in the experiment on OR4F14 A297T clone 1059, 0.903.

Consider `CCCCCCCCCC=O` [decyl aldehyde], for which the odorant receptor activation in the experiment with OR4B1 clone 1189 worked out at 1.29; with OR4C11 clone 1244, 1.59; in the experiment on OR4C12 V283L clone 1155, 1.31; in the experiment on OR4C15 clone 1337 it was 1.09; in the experiment with OR4C15 clone 1449, 1.57; in [1], 0.8. Also, the odorant receptor activation in the experiment on OR4C3 clone 1284 was 1.46; with OR4C3 clone 1480 it was 1.04; with OR4C46 K288R clone 1483 it was 1.2; in the experiment with OR4C5 clone 1307 it was 1.41; with OR4D1 R54Q clone 1467, 1.25; in the experiment on OR4D1 clone 1316, 1.26. In addition, the odorant receptor activation in the experiment with OR4D10 clone 1174 is 0.972; with OR4D11 clone 1243, 1.22; in experiment [2] it was 1.04; with OR4D5 clone 1122 it was 0.998; with OR4D6 D96G clone 1225, 1.61; in the experiment on OR4D9 clone 1217 it was 1.11. The odorant receptor activation stood at 1.24 in experiment [3] and 1.02 in the experiment with OR4F14 A297T clone 1059.

Take `CCCCCCOC(=O)CCC` [hexyl butyrate]: the odorant receptor activation with OR4B1 clone 1189 was 0.905; in the experiment with OR4C11 clone 1244 it was 0.839 and 1.18; with OR4C12 V283L clone 1155 it was 1.22; in the experiment with OR4C15 clone 1337 it was 1.44 and 0.977; with OR4C15 clone 1449, 0.837; in experiment [1], 0.912. For the same compound, the odorant receptor activation was 0.91 and 0.645 in the experiment on OR4C3 clone 1284; 0.919 and 1.15 in the experiment on OR4C3 clone 1480; 0.858 and 0.939 with OR4C46 K288R clone 1483; 1.05 and 0.943 with OR4C5 clone 1307; 0.959 and 0.953 with OR4D1 R54Q clone 1467; 1.18 and 0.722 with OR4D1 clone 1316. The odorant receptor activation was 1.21 with OR4D10 clone 1174; 1.23 and 1.18 with OR4D11 clone 1243; 0.807 and 1.47 in experiment [2]; 1.17 in the experiment with OR4D5 clone 1122; 1.13 in the experiment on OR4D6 D96G clone 1225; 0.967 with OR4D9 clone 1217. The odorant receptor activation is 1.09 and 0.835 in experiment [3]; 1.08 with OR4F14 A297T clone 1059.

In the case of `CC(C)C(=O)O` [isobutyric acid], the odorant receptor activation with OR4B1 clone 1189 was 0.879; in the experiment with OR4C11 clone 1244, 0.912 and 0.914; in the experiment with OR4C12 V283L clone 1155, 1.08; in the experiment with OR4C15 clone 1337, 1.32 and 1.17; in the experiment with OR4C15 clone 1449, 0.739; in [1], 1.04. Further, the odorant receptor activation in the experiment with OR4C3 clone 1284 is 0.908 and 0.808; with OR4C3 clone 1480, 0.987 and 1.18; in the experiment with OR4C46 K288R clone 1483, 1.16 and 0.94; in the experiment with OR4C5 clone 1307 it was 1.11 and 0.941; in the experiment on OR4D1 R54Q clone 1467 it was 1.15 and 0.998; in the experiment with OR4D1 clone 1316, 1.09 and 0.707. Further, the odorant receptor activation in the experiment on OR4D10 clone 1174 was 1.1; in the experiment on OR4D11 clone 1243, 1.35 and 1.07; in experiment [2], 0.756 and 1.35; with OR4D5 clone 1122, 0.946; in the experiment on OR4D6 D96G clone 1225, 1.14; in the experiment with OR4D9 clone 1217, 1.21. Besides, the odorant receptor activation was 1.32 and 0.933 in experiment [3]; 0.76 in the experiment on OR4F14 A297T clone 1059.

On to `CC(C)CCC(=O)O` [4-methylvaleric acid], for which the odorant receptor activation in the experiment with OR4B1 clone 1189 was found to be 0.903; in the experiment on OR4C11 clone 1244, 1.31; in the experiment with OR4C12 V283L clone 1155 it was 0.804; in the experiment on OR4C15 clone 1337, 1.1; in the experiment with OR4C15 clone 1449, 0.903; in [1], 0.895. The odorant receptor activation in the experiment on OR4C3 clone 1284 turned out to be 1.08; in the experiment with OR4C3 clone 1480 it was 0.739; with OR4C46 K288R clone 1483 it was 0.985; in the experiment on OR4C5 clone 1307, 1.5; with OR4D1 R54Q clone 1467, 0.866; in the experiment on OR4D1 clone 1316, 1.09. Further, the odorant receptor activation in the experiment with OR4D10 clone 1174 was found to be 1.02; in the experiment with OR4D11 clone 1243, 1.4; in [2], 1.27; with OR4D5 clone 1122, 0.974; in the experiment with OR4D6 D96G clone 1225 it was 0.716; in the experiment on OR4D9 clone 1217, 0.99. The odorant receptor activation in experiment [3] turned out to be 1.31; with OR4F14 A297T clone 1059 it was 2.42.

Take `COC(=O)c1ccccc1O` [methyl salicylate]: the odorant receptor activation was 0.761 in the experiment on OR4B1 clone 1189; 0.954 in the experiment on OR4C11 clone 1244; 0.9 in the experiment with OR4C12 V283L clone 1155; 0.954 in the experiment with OR4C15 clone 1337; 1.22 in the experiment on OR4C15 clone 1449; 0.813 in experiment [1]. The odorant receptor activation in the experiment with OR4C3 clone 1284 is 0.835; with OR4C3 clone 1480, 0.824; with OR4C46 K288R clone 1483 it was 1.04; in the experiment on OR4C5 clone 1307, 1.05; in the experiment with OR4D1 R54Q clone 1467, 1.41; with OR4D1 clone 1316, 0.832. The odorant receptor activation in the experiment on OR4D10 clone 1174 came to 0.817; in the experiment with OR4D11 clone 1243, 0.819; in experiment [2], 0.835; with OR4D5 clone 1122, 0.802; in the experiment on OR4D6 D96G clone 1225 it was 0.683; in the experiment with OR4D9 clone 1217, 1.01. Further, the odorant receptor activation came out at 0.747 in [3] and 0.889 with OR4F14 A297T clone 1059.
